Measurements reported in PubChem BioAssay AID493014 (National Center for Advancing Translational Sciences (NCATS), 2011).
The other results are listed elsewhere or left out. Shown are side measurements of this screen, not its main read-out; they come without a call. The list favours compounds with an active or inconclusive main result. Words in brackets tell the shape of the fitted curve; partial curves, single points and poor fits give uncertain potencies.

Test: qHTS Assay to Find Inhibitors of Chronic Active B-Cell Receptor Signaling
Conditions: ABC-DLBCL IkBa-CBG/CBR reporter, luminescence ratio (green luciferase fused to IkBa over red control in TMD8 lymphoma cells), 4 h
Procedure, shortened: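 Compounds up to 46 uM were incubated four hours with TMD8 cells whose green CBG68 luciferase is fused to IkappaBalpha; red CBR luminescence normalised the signal, and concentration-effect curves were fitted to fusion, red and ratio data.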

[1] = measured here: CBR red luminescence, cell number
[2] = measured here: IkBa-CBG green luminescence

| SMILES | AC50 [1] | AC50 [2] |
| --- | --- | --- |
| CCCCCCCCn1ccc(=N)cc1 | 22.4 µM [falling, single point] | – |
| CCN1C(=O)c2cccc3c(S(=O)(=O)Nc4ncccc4C)ccc1c23 | – | 22.4 µM [falling, partial curve, poor fit] |
| CCCOc1ccc(C(=O)CCNc2cccc(Cl)c2)cc1 | 4.47 µM [rising, single point] | – |
| Cc1cccc2sc(N(CCCN(C)C)C(=O)CCc3ccccc3)nc12 | 29.1 µM [falling, single point] | – |
| CCOC(=O)CC(NC(=O)Cn1nnc(-c2ccccc2Cl)n1)c1ccc(OC)cc1 (centres undefined) | 35.5 µM [rising, single point] | – |
| Cc1ccc2nc(SCCC(=O)O)cc(C)c2c1 | 29.1 µM [falling, single point] | – |
| CC1CCCCC1NC(=O)CN(C)S(=O)(=O)c1cccc2cccnc12 (centres undefined) | 1.58 µM [rising, partial curve, poor fit] | – |
| O=C(NNC(=S)Nc1ccccc1Cl)c1ccncc1 | 35.5 µM [falling, single point] | – |
| COc1ccc(/C=N/NC(=O)c2cccnc2)cc1Cn1nc([N+](=O)[O-])c(Br)c1C | 12.6 µM [falling, partial curve, poor fit] | 20 µM [falling, partial curve, poor fit] |
| Oc1ccc(/C=N/Nc2nc(-c3ccc(Cl)cc3)cc(C(F)(F)F)n2)cc1 | 10.3 µM [falling, partial curve] | 18.4 µM [rising, single point] |
| Cc1ccc(-c2nc(S(=O)(=O)c3ccc(C)cc3)c(SCC(N)=O)o2)cc1 | 35.5 µM [falling, single point] | – |
| COc1ccc(/C=N/NC(=S)Nc2cccc(C(=O)O)c2)cc1OC | 18.4 µM [falling, partial curve] | – |
| C=CCOc1ccc(CNc2nccs2)cc1 | 3.66 µM [rising, partial curve, poor fit] | – |
| Cc1c(N2C(=O)/C(=C\c3cccc4ccccc34)SC2=S)c(=O)n(-c2ccccc2)n1C | 6.51 µM [falling, single point] | – |
| COc1cccc(CN(C)Cc2cc(=O)oc3c(C)c(C)ccc23)c1 | 10 µM [falling, single point] | – |
| CCOc1cc(NC(=O)CCl)c(OCC)cc1NC(=O)CCl | – | 11.2 µM [falling, partial curve] |
| Cc1csc(C(C)NC(=O)c2ccc(OC3CCN(CCc4ccccc4)CC3)cc2)n1 (centres undefined) | 35.5 µM [falling, partial curve, poor fit] | – |

Record cards, from the list above. Order of values: AC50 [1]	AC50 [2]
`CCCOc1ccc(C(=O)CCNc2cccc(Cl)c2)cc1` reads 4.47 µM [rising, single point]	–
`Cc1c(N2C(=O)/C(=C\c3cccc4ccccc34)SC2=S)c(=O)n(-c2ccccc2)n1C` reads 6.51 µM [falling, single point]	–
